According to PubChem BioAssay AID1347075 (National Center for Advancing Translational Sciences (NCATS), 2019):
Screen size: about 400,000 compounds; about 5,500 (1.4%) were called active. The inconclusive results got no clear call from the source; some entries with a clear call stand among them for comparison. Calls follow the shape of the dose curve; as a rule, active = well fitted cell-killing curve with a large enough effect; inconclusive = small, poorly fitted or top-dose-only effect, or effect the other way; inactive = flat fitted curve, though single readings scatter. Where the call is inconclusive, the potency comes from a doubtful curve fit.
% is scaled to controls: 0 for no effect and ±100 for the full control effect; potency is read from the fitted curve at half-maximal effect.

Test: qHTS assay for MDR1-selective chemotherapeutics: Primary screen using the parental adenocarcinoma cell KB-3-1; also: nearly all actives have a fitted effect of over 60% in size
Conditions: KB-3-1 viability, CellTiter-Glo ATP luminescence, 72 h; activity change, negative = cytotoxic: at 46.1 µM (top of the series)
How it was run: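 Parental KB-3-1 adenocarcinoma cells in phenol-red-free DMEM with 10% FBS were pin-treated with compounds at several concentrations, incubated 72 h at 37 °C, and viability read by CellTiter-Glo luminescence; concentration-effect curves were fitted after normalization.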
With `CCOC(=O)C1(Cc2cccc(F)c2)CCN(C(=O)C2CCC2)CC1` the Potency was inconclusive: 25.9 µM [cytotoxic, single point]. In the case of `Cc1ccc(S(=O)(=O)N2C[C@H]3n4c(=O)ccc(=O)n4C[C@H](OC(=O)NCc4ccccc4F)[C@@]3(O)C2)cc1`, the Potency is reported as inconclusive: 29.1 µM [cytotoxic, single point]. With `O=C(NNC(=O)c1n[nH]c2ccccc12)c1ccccc1` the Potency was inconclusive: 14.6 µM [rising, single point]. For `CCCn1nnc(NC(=S)NC(=O)Cc2ccccc2)n1`, the “activity change, negative = cytotoxic” value was inactive: -6.7%. In the case of `COc1ccc(C2CC(=O)c3cnc(NC(=O)c4ccco4)nc3C2)cc1` (centres undefined), the Potency is reported as inconclusive: 14.6 µM [rising, single point]. For `O=C(c1ccco1)N1CCN(C(=S)Nc2ccccc2C(F)(F)F)CC1`, the “activity change, negative = cytotoxic” value was inactive: -18.9%. For `CCOC(=O)c1c(NCc2ccccc2)n[nH]c1C`, the “activity change, negative = cytotoxic” value was inactive: -4.38%. With `CC(C)CN(C(=O)COC(=O)/C=C/c1ccc(Cl)c(Cl)c1)c1c(N)n(Cc2ccccc2)c(=O)[nH]c1=O` the Potency was inconclusive: 29.1 µM [cytotoxic, single point]. With `CC1=C(C(=O)OCCCBr)C(c2ccc3c(c2)OCO3)NC(=O)N1` (centres undefined) the Potency was inconclusive: 25.9 µM [cytotoxic, partial curve, poor fit]. For `CCN(C[C@H]1N[C@@](C)(C(=O)OC)[C@H]2C(=O)N(C)C(=O)[C@@H]12)C(=O)c1ccc(C(C)(C)C)cc1`, the “activity change, negative = cytotoxic” value was inactive: 12.3%. In the case of `CCCCn1c(N)c(N(CCC(C)C)C(=O)c2ccc(-c3ccc([N+](=O)[O-])cc3)o2)c(=O)[nH]c1=O`, the Potency is reported as inconclusive: 29.1 µM [cytotoxic, single point]. For `CCc1ccc(NC(=O)N2CCN(c3nnc(C)c4c(C)n(-c5ccc(Cl)cc5)nc34)CC2)cc1`, the Potency was inconclusive: 20.6 µM [cytotoxic, single point]. With `Cc1ccc(NC(=O)C2=C(c3ccccc3)S(=O)(=O)CCS2(=O)=O)cc1` the Potency was inconclusive: 5.17 µM [cytotoxic, full curve, poor fit]. In the case of `COC(=O)C1=C(C(=O)OC)[C@]2([C@@H]3C/C=C\CN[C@@H](Cc4ccccc4)C(=O)N3Cc3ccccc3)C=C[C@H]1O2`, the Potency is reported as inconclusive: 32.6 µM [cytotoxic, single point]. In the case of `O=C(CSc1nnc(-c2ccncc2)n1C1CC1)c1cccs1`, the activity change, negative = cytotoxic is reported as inconclusive: 50.6%. For `CN1C(=O)/C(=C\c2ccccc2F)Sc2ccc(C(=O)NC3CCN(Cc4ccccc4)CC3)cc21`, the Potency was inconclusive: 20.6 µM [cytotoxic, single point]. With `COc1ccc(C(=O)NC(Nc2ccc(C)cc2)C(Cl)(Cl)Cl)cc1` (centres undefined) the Potency was inconclusive: 29.1 µM [cytotoxic, single point]. For `CCOc1ccc(C(=O)C[n+]2cccc3cc(C)ccc32)cc1`, the Potency was inconclusive: 20.6 µM [cytotoxic, single point]. With `CCCc1cc(NCc2ccccn2)n2nc(C)c(-c3ccccc3)c2n1` the Potency was inconclusive: 16.4 µM [cytotoxic, single point]. For `N#C/C(=N\Nc1ccc(Cl)cc1)C(=O)c1ccccc1`, the Potency was inconclusive: 3.26 µM [cytotoxic, partial curve, poor fit]. In the case of `Cc1ccc(C)c(S(=O)(=O)N2CCN(C(=O)c3sccc3C)CC2)c1`, the “activity change, negative = cytotoxic” value is reported as inactive: -20.7%. With `CCc1cc2cc(C(=O)N3CCN(Cc4ccccc4)CC3)sc2s1` the Potency was active: 20.6 µM. For `CCOc1cccc(CC(=O)NCc2ccc3c(c2)CCN3C(=O)c2cccc(C)c2)c1OCC`, the Potency was inconclusive: 18.4 µM [cytotoxic, single point]. For `O=C(O)c1cc(S(=O)(=O)N2CCCCC2)ccc1N1CCOCC1`, the “activity change, negative = cytotoxic” value was inactive: 14.3%. For `O=C(COC(=O)c1ccc(F)c(S(=O)(=O)N2CCOCC2)c1)c1ccccc1`, the Potency was inconclusive: 32.6 µM [rising, single point]. In the case of `Cc1cc(C)n(-c2nnc(C)n2/N=C/c2ccccc2OCc2ccccc2Cl)n1`, the Potency is reported as inconclusive: 29.1 µM [cytotoxic, single point]. With `CC(C)CCC(CC(C)O)C(=O)NNC(=S)Nc1ccccc1` (centres undefined) the “activity change, negative = cytotoxic” value was inactive: 3.85%. With `COc1cc2c(cc1OC)-c1cc(N3CCc4ccccc43)nc(=O)n1CC2` the activity change, negative = cytotoxic was inconclusive: 0%. For `Cc1cc(C)c2c(CC(=O)NCc3ccco3)coc2c1`, the Potency was inconclusive: 20.6 µM [cytotoxic, single point]. With `COc1ccc(N2C(=NC(C)=O)SC3CS(=O)(=O)CC32)cc1OC` (centres undefined) the “activity change, negative = cytotoxic” value was inactive: -0.345%. For `COc1ccccc1-c1cnc(C(O)c2ccc(C(C)(C)C)cc2)[nH]1` (centres undefined), the Potency was inconclusive: 18.4 µM [cytotoxic, single point]. With `CCN1CCN(c2nc(Nc3ccccc3)nc(N)c2[N+](=O)[O-])CC1` the “activity change, negative = cytotoxic” value was inactive: 8.73%. In the case of `CCC(CC)C(=O)N1CCc2cc(OC)c(OC)cc2C1COc1ccc2c(C)cc(=O)oc2c1` (centres undefined), the “activity change, negative = cytotoxic” value is reported as inactive: 0.188%. In the case of `Cc1ccc2nc(N/N=C\c3ccc([N+](=O)[O-])o3)nc(-c3ccccc3)c2c1`, the Potency is reported as active: 25.9 µM. For `Cc1ccc(Oc2cc([N+](=O)[O-])cc3c2C(=O)Nc2ccccc2O3)cc1`, the activity change, negative = cytotoxic was inconclusive: -76.2%. With `COc1ccc(-c2csc(Nc3cccc(C)n3)n2)cc1` the Potency was inconclusive: 20.6 µM [cytotoxic, single point]. In the case of `C=C(C)COc1ccc(-c2[nH]ncc2-c2ccc(OC)c(OC)c2)c(O)c1`, the Potency is reported as active: 1.64 µM. For `Cc1cc2ccccc2n1CCNC(=O)c1cccs1`, the “activity change, negative = cytotoxic” value was inactive: -15.6%. For `O=C(/C=C/c1ccco1)Nc1ccccn1`, the Potency was active: 5.8 µM. With `CC1CCCN(C(=O)c2ccc(CSc3nc4ccncc4n3Cc3ccccc3)cc2)C1` (centres undefined) the “activity change, negative = cytotoxic” value was inactive: -17.9%. For `CCCOC1CCCN(C(=O)c2cc(COc3cncc(Cl)c3)on2)C1` (centres undefined), the Potency was inconclusive: 25.9 µM [cytotoxic, single point]. With `Cc1cc(NS(=O)(=O)c2ccc(NC(=O)C(C)Oc3cccc(C)c3C)cc2)nc(C)n1` (centres undefined) the Potency was inconclusive: 29.1 µM [cytotoxic, single point]. With `CCCCCCc1cc2cc(-c3nnc(-c4ccccc4)o3)c(=O)oc2cc1O` the Potency was inconclusive: 23.1 µM [cytotoxic, partial curve, poor fit]. In the case of `CCOC(=O)[C@]12CCC=C1N(Cc1cccc3ccccc13)C(=O)[C@H](CC(=O)NCCC(C)C)C2`, the Potency is reported as inconclusive: 29.1 µM [cytotoxic, single point].
